The source of these data is patent US20160257751A1 (SORRENTO THERAPEUTICS, published 2016).

Sequences of proteins named here, by UniProt entry; tags and fusion partners are left off. Residues count along the entry.
UniProt Q08722, residues 19-139: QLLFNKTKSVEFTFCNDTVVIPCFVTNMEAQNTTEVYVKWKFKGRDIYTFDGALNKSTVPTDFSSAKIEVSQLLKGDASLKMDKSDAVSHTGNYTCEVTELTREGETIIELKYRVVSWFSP

These are yes or no findings as the source states them, for the method shown. Some binding calls cover weakened binding; strength is not graded here.

Assay [1] deals with human CD47 (human) (UniProt Q08722). In words: ELISA: IgG at 1 ug/ml captured on goat anti-human Fd antibody; serially diluted biotinylated CD47 pre-complexed with neutravidin-AP; PNPP absorbance.
Assay [2] shares this target. In words: ELISA, IgG captured on goat anti-human FD antibody, biotinylated CD47 pre-complexed with neutravidin-AP.
The target is the same in assay [3]. In words: ELISA: antibody at 1.3 ug/ml captured on goat anti-human lambda antibody; serially diluted biotinylated CD47 pre-complexed with neutravidin-AP; PNPP absorbance.
The target is the same in assay [4]. In words: affinity screen of CDR variants.
For assay [5] the target is unchanged. In words: ELISA, antibody captured on goat anti-human lambda, biotinylated CD47 pre-complexed with neutravidin-AP.
Assay [6] has the same target. In words: affinity screen of CDR variants and combinatorial library, relative to C47B10-1.
Assay [7] has the same target. Nature of the assay: ELISA, antibody captured on goat anti-lambda, biotinylated CD47, neutravidin-AP detection.
The target is the same in assay [8]. Nature of the assay: ELISA: antibody at 1 ug/ml captured on goat anti-lambda antibody; serially diluted biotinylated CD47, then neutravidin-AP; PNPP absorbance.
Assay [9] addresses T1, human CD47 (human, UniProt Q08722 19-139, limits assumed, biotinylated in the ELISAs (site not stated)).
T1 construct: also called biotinylated CD47; CD47 receptor
Nature of the assay: ELISA: IgG at 1 ug/ml captured on goat anti-human Fd antibody; serially diluted biotinylated CD47 pre-complexed with neutravidin-AP; PNPP absorbance.

In assay [10] the target is T1, human CD47. Nature of the assay: ELISA, IgG captured on goat anti-human FD antibody, biotinylated CD47 pre-complexed with neutravidin-AP.
In assay [11] the target is human CD47 (human) (UniProt Q08722). Nature of the assay: affinity screen of CDR variants; ELISA.

B1: C47A8-CL (antibody, V domains shown)
VH: QVQLVQSGAEVKKPGASVKVSCKASGYTFTSYYMHWVRQAPGQGLEWMGIINPSGGSTSYAQKFQGRVTMTRDTSTSTVYMELSSLRSEDTAVYYCARSTLWFSEFDYWGQGTLVTVSS
VL: QSVLTQPSSVSASPGQSITISCSGTSSDVGGHNYVSWYQQHPGKAPKLMIYDVTKRPSGVPDRFSGSKSGNTASLTVSGLQAEDEADYYCLSYAGSRVYVFGTGTKLTVL
Take B1: the binding entry with human CD47 (human) [1] and in the assay with human CD47 (human) [2] was “binds” each time.

B2: C47B10-H3-D3 (antibody, V domains shown)
VH: QVQLVQSGAEVKKPGASVKVSCKASGYTFTSYYMHWVRQAPGQGLEWMGIINPSGGSTSYAQKFQGRVTMTRDTSTSTVYMELSSLRSEDTAVYYCARSTLWFSEFDWWGQGTLVTVSS
VL: QSALTQPASVSGSPGQSISISCTGTSSDVGGHNYVSWYQQHPGKAPKLMIYDVRNRPSGVSNRFSGSKSGSTASLTISGLQTEDEADYYCNSYTGSRTYVFGSGTKLTVL
Turning to B2, the binding entry with human CD47 (human) [3], with human CD47 (human) [4] and in the assay with human CD47 (human) [5] was “binds” in each case.

B3: C47B10-2A9S (antibody, V domains shown)
VH: QVQLVQSGAEVKKPGASVKVSCKASGYTFTSYYMHWVRQAPGQGLEWMGIINPSGGSTSYAQKFQGRVTMTRDTSTSTVYMELSSLRSEDTAVYYCARSRLWFSEFDYWGQGTLVTVSS
VL: QSALTQPASVSGSPGQSISISCTGTSSDVGGHNYVSWYQQHPGKAPKLMIYDVRNRPSGVSNRFSGSKSGSTASLTISGLQTEDEADYYCNSYTGSRTYVFGSGTKLTVL
Take B3: the binding result with human CD47 (human) [6], with human CD47 (human) [7] and in the assay with human CD47 (human) [8] was “binds” in each case.

B4: C47B10-2B9S (antibody, V domains shown)
VH: QVQLVQSGAEVKKPGASVKVSCKASGYTFTSYYMHWVRQAPGQGLEWMGIINPSGGSTSYAQKFQGRVTMTRDTSTSTVYMELSSLRSEDTAVYYCARSTLWFSAFDYWGQGTLVTVSS
VL: QSVLTQPASVSGSPGQSISISCTGTSSDVGGHNYVSWYQQHPGKAPKLMIYDVRNRPSGVSNRFSGSKSGSTASLTISGLQTEDEADYYCNSYTGSRTYVFGSGTKLTVL
In the case of B4, the binding entry in the assay with human CD47 (human) [6], with human CD47 (human) [7] and with human CD47 (human) [8] was “binds” throughout.

B5: C47B10-L1A-A4 (antibody, V domains shown)
VH: QVQLVQSGAEVKKPGASVKVSCKASGYTFTSYYMHWVRQAPGQGLEWMGIINPSGGSTSYAQKFQGRVTMTRDTSTSTVYMELSSLRSEDTAVYYCARSTLWFSEFDYWGQGTLVTVSS
VL: QSALTQPASVSGSPGQSISISCTGTSSDVVGHNYVSWYQQHPGKAPKLMIYDVRNRPSGVSNRFSGSKSGSTASLTISGLQTEDEADYYCNSYTGSRTYVFGSGTKLTVL
In the case of B5, the binding entry with human CD47 (human) [3], with human CD47 (human) [4] and with human CD47 (human) [5] was “binds” in each case.

B6: C47A8-CA (antibody, V domains shown)
VH: QVQLVQSGAEVKKPGASVKVSCKASGYTFTSYYMHWVRQAPGQGLEWMGIINPSGGSTSYAQKFQGRVTMTRDTSTSTVYMELSSLRSEDTAVYYCARSTLWFSEFDYWGQGTLVTVSS
VL: QSVLTQPSSVSASPGQSITISCSGTSSDVGGHNYVSWYQQHPGKAPKLMIYDVTKRPSGVPDRFSGSKSGNTASLTVSGLQAEDEADYYCASYAGSRVYVFGTGTKLTVL
Regarding B6, the binding result with human CD47 (human) [1] and with human CD47 (human) [2] was “binds” each time.

B7: C47B10-L3-B2 (antibody, V domains shown)
VH: QVQLVQSGAEVKKPGASVKVSCKASGYTFTSYYMHWVRQAPGQGLEWMGIINPSGGSTSYAQKFQGRVTMTRDTSTSTVYMELSSLRSEDTAVYYCARSTLWFSEFDYWGQGTLVTVSS
VL: QSALTQPASVSGSPGQSISISCTGTSSDVGGHNYVSWYQQHPGKAPKLMIYDVRNRPSGVSNRFSGSKSGSTASLTISGLQTEDEADYYCTSYTGSRTYVFGSGTKLTVL
As to B7, the binding result in the assay with human CD47 (human) [3], with human CD47 (human) [4] and with human CD47 (human) [5] was “binds” each time.

B8: C47A8 (antibody, V domains shown)
VH: QVQLVQSGAEVKKPGASVKVSCKASGYTFTSYYMHWVRQAPGQGLEWMGIINPSGGSTSYAQKFQGRVTMTRDTSTSTVYMELSSLRSEDTAVYYCARSTLWFSEFDYWGQGTLVTVSS
VL: QSVLTQPSSVSASPGQSITISCSGTSSDVGGHNYVSWYQQHPGKAPKLMIYDVTKRPSGVPDRFSGSKSGNTASLTVSGLQAEDEADYYCCSYAGSRVYVFGTGTKLTVL
notes: also called CD47A8
Consider B8, for which the binding entry in the assay with human CD47 [9] and with human CD47 [10] was “binds” throughout.

B9: C47B10-1H4S (antibody, V domains shown)
VH: QVQLVQSGAEVKKPGASVKVSCKASGYTFTSYYMHWVRQAPGQGLEWMGIINPSGGSTSYAQKFQGRVTMTRDTSTSTVYMELSSLRSEDTAVYYCARSTLWFSEFDYWGQGTLVTVSS
VL: QSALTQPASVSGSPGQSISISCTGTSVDVGGHNYVSWYQQHPGKAPKLMIYDVRNRPSGVSNRFSGSKSGSTASLTISGLQTEDEADYYCNSYTGSRTYVFGSGTKLTVL
Take B9: the binding entry with human CD47 (human) [6] is reported as “binds”.

B10: C47B10-2C4S (antibody, V domains shown)
VH: QVQLVQSGAEVKKPGASVKVSCKASGYTFTSYYMHWVRQAPGQGLEWMGIINPSGGSTSYAQKFQGRVTMTRDTSTSTVYMELSSLRSEDTAVYYCARSTLWFSSFDYWGQGTLVTVSS
VL: QSVLTQPASVSGSPGQSISISCTGTSSDVGGHNYVSWYQQHPGKAPKLMIYDVRNRPSGVSNRFSGSKSGSTASLTISGLQTEDEADYYCNSYTGSRTYVFGSGTKLTVL
B10: the binding result with human CD47 (human) [6] is “binds”.

B11: C47B10-L1A-A10 (antibody, V domains shown)
VH: QVQLVQSGAEVKKPGASVKVSCKASGYTFTSYYMHWVRQAPGQGLEWMGIINPSGGSTSYAQKFQGRVTMTRDTSTSTVYMELSSLRSEDTAVYYCARSTLWFSEFDYWGQGTLVTVSS
VL: QSALTQPASVSGSPGQSISISCTGTSSDVGWHNYVSWYQQHPGKAPKLMIYDVRNRPSGVSNRFSGSKSGSTASLTISGLQTEDEADYYCNSYTGSRTYVFGSGTKLTVL
On to B11, for which the binding result with human CD47 (human) [3], with human CD47 (human) [5] and with human CD47 (human) [11] was “binds” each time.

B12: C47B10-2C1S (antibody, V domains shown)
VH: QVQLVQSGAEVKKPGASVKVSCKASGYTFTSYYMHWVRQAPGQGLEWMGIINPSGGSTSYAQKFQGRVTMTRDTSTSTVYMELSSLRSEDTAVYYCARSTLWFTEFDYWGQGTLVTVSS
VL: QSVLTQPASVSGSPGQSISISCTGTSSDVGGHNYVSWYQQHPGKAPKLMIYDVRNRPSGVSNRFSGSKSGSTASLTISGLQTEDEADYYCNSYTGSRTYVFGSGTKLTVL
In the case of B12, the binding result with human CD47 (human) [6] was “binds”.

B13: C47B10-H3-D4 (antibody, V domains shown)
VH: QVQLVQSGAEVKKPGASVKVSCKASGYTFTSYYMHWVRQAPGQGLEWMGIINPSGGSTSYAQKFQGRVTMTRDTSTSTVYMELSSLRSEDTAVYYCARSTLWVSEFDYWGQGTLVTVSS
VL: QSALTQPASVSGSPGQSISISCTGTSSDVGGHNYVSWYQQHPGKAPKLMIYDVRNRPSGVSNRFSGSKSGSTASLTISGLQTEDEADYYCNSYTGSRTYVFGSGTKLTVL
For the molecule B13, the binding entry with human CD47 (human) [3], with human CD47 (human) [5] and with human CD47 (human) [11] was “binds” in each case.

B14: C47B10 (antibody, V domains shown)
VH: QVQLVQSGAEVKKPGASVKVSCKASGYTFTSYYMHWVRQAPGQGLEWMGIINPSGGSTSYAQKFQGRVTMTRDTSTSTVYMELSSLRSEDTAVYYCARSTLWFSEFDYWGQGTLVTVSS
VL: QSVLTQPASVSGSPGQSISISCTGTSSDVGGHNYVSWYQQHPGKAPKLMIYDVRNRPSGVSNRFSGSKSGSTASLTISGLQTEDEADYYCNSYTGSRTYVFGSGTKLTVL
notes: lambda light chain (captured with anti-human lambda); also called CD47B10
Regarding B14, the binding entry with human CD47 (human) [3], with human CD47 (human) [5], with human CD47 (human) [7] and in the assay with human CD47 (human) [8] was “binds” throughout.

B15: C47A8-CS (antibody, V domains shown)
VH: QVQLVQSGAEVKKPGASVKVSCKASGYTFTSYYMHWVRQAPGQGLEWMGIINPSGGSTSYAQKFQGRVTMTRDTSTSTVYMELSSLRSEDTAVYYCARSTLWFSEFDYWGQGTLVTVSS
VL: QSVLTQPSSVSASPGQSITISCSGTSSDVGGHNYVSWYQQHPGKAPKLMIYDVTKRPSGVPDRFSGSKSGNTASLTVSGLQAEDEADYYCSSYAGSRVYVFGTGTKLTVL
On to B15, for which the binding entry with human CD47 (human) [1] and with human CD47 (human) [2] was “binds” each time.

B16: C47A8-CQ (antibody, V domains shown)
VH: QVQLVQSGAEVKKPGASVKVSCKASGYTFTSYYMHWVRQAPGQGLEWMGIINPSGGSTSYAQKFQGRVTMTRDTSTSTVYMELSSLRSEDTAVYYCARSTLWFSEFDYWGQGTLVTVSS
VL: QSVLTQPSSVSASPGQSITISCSGTSSDVGGHNYVSWYQQHPGKAPKLMIYDVTKRPSGVPDRFSGSKSGNTASLTVSGLQAEDEADYYCQSYAGSRVYVFGTGTKLTVL
On to B16, for which the binding result in the assay with human CD47 (human) [1] and with human CD47 (human) [2] was “binds” throughout.
